In the supplement of paper PMC12067093, “Discovery and optimisation of a covalent ligand for TRIM25 and its application to targeted protein ubiquitination” (Chemical Science, 2025):
This is one part of the list.

Compound: CC1Cc2ccccc2N1C(=O)C1CCCN(C1)C(=O)CCl (mixture of isomers) [TRIM25 ligand 11 (diastereomer mixture)]
Test: probe-labelled cysteine peptide fold change vs DMSO (competition) (log2 fold change); higher = less target engagement (more negative = stronger competition)
Settings: THP-1, incubation time: 4 h
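Further: competitive chemoproteomic profiling in live THP-1 cells with an iodoacetamide desthiobiotin (IA-DTB) probe, comparing probe-labelled peptide intensities in compound-treated cells against DMSO-treated controls.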

Row | Target | probe-labelled cysteine peptide fold change (10 µM) | probe-labelled cysteine peptide fold change (50 µM)
1 | RBM28_Q9NW13_97_NENSECPK (UniProt Q9NW13) | -0.0172 | -0.0233
2 | RBM15B_Q8NDT2_323_GRPYGYPAVCEEDLMPEDDQR (UniProt Q8NDT2) | -0.102 | -0.177
3 | RASSF4_Q9H2L5_5_EDCLPSSHVPISDSK (UniProt Q9H2L5) | 0.0963 | -0.308
4 | RALGAPA2_Q2PPJ7_418_GYVNFVNEVFHQAFLLPSCEIAVTR (UniProt Q2PPJ7) | 0.282 | 0.183
5 | RASA3_Q14644_144_LSEVITDTGVVCHK (UniProt Q14644) | 0.0131 | 0.214
6 | RARS_P54136_34_NCGCLGASPNLEQLQEENLK (UniProt P54136) | -0.36 | -0.206
7 | RBM22_Q9NW64_74_TEVCQTCSK (UniProt Q9NW64) | -0.0386 | -0.0803
8 | RBM34_P42696_310_HFLDCGSIMAVR (UniProt P42696) | 0.227 | 0.222
9 | RAVER1_Q8IY67_297_VSFCAPGPPGR (UniProt Q8IY67) | 0.0248 | 0.0311
10 | RBMXL1_Q96E39_338_SDLYSSCDR (UniProt Q96E39) | 0.124 | -0.216
11 | RAP1A_P62834_139+141_QWCNCAFLESSAK (UniProt P62834) | -0.0878 | 0.0826
12 | RCC1L_Q96I51_181_VLQVSCGR (UniProt Q96I51) | 0.303 | 0.352
13 | RBPJ_Q06330_68+72_FFCPPPCVYLMGSGWK (UniProt Q06330) | -0.0804 | -0.135
14 | RBM10_P98175_222_CGVQNFK (UniProt P98175) | -0.0501 | 0.0541
15 | RBM23_Q86U06_316_GYGFITFSDSECAR (UniProt Q86U06) | 0.211 | 0.111
16 | RCHY1_Q96PM5_136_CIENVSR (UniProt Q96PM5) | -0.00217 | -0.135
17 | RAD9A_Q99638_3_CLVTGGNVK (UniProt Q99638) | 0.0691 | 0.0993
18 | RBM19_Q9Y4C8_293_EPTTCHTVK (UniProt Q9Y4C8) | 0.0444 | 0.0582
19 | RBM19_Q9Y4C8_31_QLFAAFGTLTDCSLK (UniProt Q9Y4C8) | 0.131 | 0.175
20 | RCC2_Q9P258_209_LIEGLSHEVIVSAACGR (UniProt Q9P258) | -0.000959 | 0.0564
21 | RARS2_Q5T160_479_LHSLEETFGCGYLNDFNTACLQEPQSVSILQHLLR (UniProt Q5T160) | 0.0498 | 0.199
22 | RASSF5_Q8WWW0_225_NCLGMK (UniProt Q8WWW0) | -0.142 | -0.21

Row | Target | probe-labelled cysteine peptide fold change (10 µM) | probe-labelled cysteine peptide fold change (50 µM)
23 | RANBP2_P49792_707_AEDIENDALSPEEQEECK (UniProt P49792) | 0.0213 | 0.0682
24 | RASGRP2_Q7LDG7_186_ILFQDYHSFVTHGCTVDNPVLER (UniProt Q7LDG7) | 0.0656 | 0.0818
25 | RAD54L2_Q9Y4B4_618_AFCVCCK (UniProt Q9Y4B4) | -0.00704 | 0.0823
26 | RASA2_Q15283_436_SCEIDPIK (UniProt Q15283) | 0.0172 | -0.0986
27 | RBCK1_Q9BYM8_493_WGPGGPGDTSGGCR (UniProt Q9BYM8) | -0.00776 | -0.0504
28 | RANGAP1_P46060_303_ELNLSFCEIKR (UniProt P46060) | -0.127 | -0.153
29 | RAPGEF6_Q8TEU7_522_LLNIACAAK (UniProt Q8TEU7) | 0.00415 | -0.0843
30 | RASGRP2_Q7LDG7_11_GCTVEELLR (UniProt Q7LDG7) | -0.0391 | 0.207
31 | RBPJ_Q06330_313_IIQFQATPCPK (UniProt Q06330) | 0.0851 | 0.0536
32 | RBBP4_Q09028_138_YMPQNPCIIATK (UniProt Q09028) | -0.0727 | -0.0279
33 | RANBP2_P49792_2982_VCANHVITK (UniProt P49792) | 0.0898 | 0.0664
34 | RADIL_Q96JH8_298_PSISLSAPDILPLHCTIR (UniProt Q96JH8) | 0.109 | 0.111
35 | RBBP6_Q7Z6E9_27_LNYDTVTFDGLHISLCDLK (UniProt Q7Z6E9) | 0.212 | 0.0195
36 | RB1CC1_Q8TDY2_839_CTAVEIR (UniProt Q8TDY2) | 0.033 | -0.123
37 | RBX1_P62877_94_QVCPLDNREWEFQK (UniProt P62877) | -0.367 | -0.31
38 | RBM19_Q9Y4C8_77_ITVEFCK (UniProt Q9Y4C8) | -0.0669 | -0.0167
39 | RBBP6_Q7Z6E9_161_KPLGPPPPSYTCFR (UniProt Q7Z6E9) | -0.0221 | 0.059
40 | RBL1_P28749_1047_VCQENDDVLLK (UniProt P28749) | 0.0885 | -0.114
41 | RBCK1_Q9BYM8_308_ECLQGTIR (UniProt Q9BYM8) | -0.0388 | 0.00995
42 | RB1CC1_Q8TDY2_603_VPLLCDFEPLHQHVLALHNLVK (UniProt Q8TDY2) | -0.121 | 0.00852
43 | RBM15_Q96T37_926_ENTGVLHAFPPCEFSQQFLDSPAK (UniProt Q96T37) | -0.0929 | -0.142
44 | RAP1GDS1_P52306_350_NDANCIHMVDNGIVEK (UniProt P52306) | -0.0202 | -0.0323

Row | Target | probe-labelled cysteine peptide fold change (10 µM) | probe-labelled cysteine peptide fold change (50 µM)
45 | RASA1_P20936_1002_DLAALHEICVAHSDELR (UniProt P20936) | -0.134 | -0.0496
46 | RALBP1_Q15311_411_RQEFLLNCLHR (UniProt Q15311) | -0.116 | -0.0212
47 | RANBP2_P49792_1485_EGQWDCSACLVQNEGSSTK (UniProt P49792) | 0.0323 | 0.187
48 | RBX1_P62877_94_QVCPLDNR (UniProt P62877) | 0.0929 | 0.159
49 | RCHY1_Q96PM5_183+186_CPLCMHSALDMTR (UniProt Q96PM5) | -0.0447 | 0.0148
50 | RCHY1_Q96PM5_90_IQHAQQTCEECSTLFGEYYCDICHLFDK (UniProt Q96PM5) | 0.0425 | 0.109
51 | RASAL3_Q86YV0_614_LLCPAILAPSLFGLAPDHPAPGPAR (UniProt Q86YV0) | -0.0801 | 0.0213
52 | RAN_P62826_112+120_VCENIPIVLCGNK (UniProt P62826) | -0.0208 | -0.109
53 | RAE1_P78406_217_CVAIFK (UniProt P78406) | -0.0991 | -0.0606
54 | RANBP1_P43487_99_ICANHYITPMMELKPNAGSDR (UniProt P43487) | -0.0756 | -0.0964
55 | RAI14_Q9P0K7_139_TALHYAAAQGCLQAVQILCEHK (UniProt Q9P0K7) | -0.129 | 0.111
56 | RASAL3_Q86YV0_546_CPASELPEHQAR (UniProt Q86YV0) | -0.0894 | -0.27
57 | RBM25_P49756_110_CGLVLSWK (UniProt P49756) | 0.107 | -0.0148
58 | RAI14_Q9P0K7_101_NSHHECIR (UniProt Q9P0K7) | 0.23 | 0.0866
59 | RBBP7_Q16576_97_VHIPNDDAQFDASHCDSDKGEFGGFGSVTGK (UniProt Q16576) | 0.0189 | 0.134
60 | RANBP2_P49792_707_KAEDIENDALSPEEQEECK (UniProt P49792) | 0.147 | 0.111
61 | RAI1_Q7Z5J4_790_GDTHEASACLGFQEEDPPGEK (UniProt Q7Z5J4) | -0.145 | -0.333
62 | RASA2_Q15283_354_SPDVQPISASAAYILSEICR (UniProt Q15283) | -0.127 | 0.22
63 | RCHY1_Q96PM5_20_GCEHYDR (UniProt Q96PM5) | -0.0387 | -0.115
64 | RALGAPA1_Q6GYQ0_424_QAFLLPICEAAAMR (UniProt Q6GYQ0) | 0.13 | 0.00393
65 | RBM15B_Q8NDT2_732_NSCFPTSMHILEGDQGVISSLLK (UniProt Q8NDT2) | 0.297 | 0.0112
66 | RBBP6_Q7Z6E9_27_LNYDTVTFDGLHISLCDLKK (UniProt Q7Z6E9) | -0.13 | 0.0107

Row | Target | probe-labelled cysteine peptide fold change (10 µM) | probe-labelled cysteine peptide fold change (50 µM)
67 | RANBP10_Q6VN20_501_RQLCGGNQAATER (UniProt Q6VN20) | -0.0995 | -0.04
68 | RAP1GDS1_P52306_560+567_YNSMVLICALMGSECLHK (UniProt P52306) | -0.119 | -0.182
69 | RBPJ_Q06330_397_CGESMLCVVPDISAFR (UniProt Q06330) | 0.165 | 0.021
70 | RCCD1_A6NED2_42_AGVDICR (UniProt A6NED2) | 0.0261 | 0.193
71 | RBBP6_Q7Z6E9_296+299_TALLESDEHTCPTCHQNDVSPDALIANK (UniProt Q7Z6E9) | -0.204 | -0.218
72 | RANBP2_P49792_1502_CAACQNPR (UniProt P49792) | 0.00948 | 0.213
73 | RCHY1_Q96PM5_87_IQHAQQTCEECSTLFGEYYCDICHLFDK (UniProt Q96PM5) | -0.177 | -0.00982
74 | RAP1A_P62834_118_DTEDVPMILVGNKCDLEDERVVGK (UniProt P62834) | -0.603 | -0.364
75 | RANBP10_Q6VN20_243_VQGTVHCFPISAR (UniProt Q6VN20) | 0.273 | 0.368
76 | RARS2_Q5T160_372_CQHVPFGVVQGMK (UniProt Q5T160) | -0.0161 | 0.0733
77 | RASAL2_Q9UJF2-2_95_KYCILTDSQLVLLNK (UniProt Q9UJF2) | -0.312 | 0.0501
78 | RANBP10_Q6VN20_100_ATHPIPAACGIYYFEVK (UniProt Q6VN20) | 0.0789 | 0.217
79 | RCHY1_Q96PM5_148_QNCPICLEDIHTSR (UniProt Q96PM5) | 0.451 | 0.316
80 | RBM25_P49756_132_LQAFGFCEYK (UniProt P49756) | 0.394 | 0.449
81 | RANBP10_Q6VN20_610_AGLGSCSFAR (UniProt Q6VN20) | 0.00513 | 0.0994
82 | RALGAPB_Q86X10_278_VPDEDASLIPPEMDNECVAQTWFR (UniProt Q86X10) | -0.291 | -0.533
83 | RANBP9_Q96S59_594_HDHEMEDCDTEMEVDSSQLR (UniProt Q96S59) | -0.237 | -0.367
84 | RASAL2_Q9UJF2_333_EELACALVHILQSTGR (UniProt Q9UJF2) | 0.338 | 0.305
85 | RBKS_Q9H477_151_VMVCQLEITPATSLEALTMAR (UniProt Q9H477) | -0.00827 | -0.305
